From patent US8623405B2, “Finely divided composition containing poorly water soluble substance” (Takeda Pharmaceutical Company Limited, priority 2005, dated 2014) come the findings set out here.

Values after ≈ are worked out from the molar mass of the structure shown.

The nature of this data set: physchem. The following applies: 20 °C, aqueous with cosolvent or surfactant or cyclodextrin, thermodynamic from solid.

The compound `COC(=O)C1=C(C)NC(C)=C(C(=O)OC)C1c1ccccc1[N+](=O)[O-]` [nifedipine] gave a solubility of 0.264 mg/mL (≈ 762 µM).

The solubility is the concentration that dissolves in the medium under given conditions. Read a high solubility as a readily soluble substance.
